Experimental data: PubChem BioAssay AID1224830 (NIAID, 2016)
Here is one part, drawn at random, of about 18,000 deposited reagents. About 2,900 of them (16%) count as active. 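Calls are made per well; low scores hint the gene aids the LPS response, high scores that it dampens it.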 Entries without a mark were called inactive. Repeated entries: four replicate wells of each siRNA pool.

Test: 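Genes whose knock-down alters the TNF-alpha reporter response to LPS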 (primary screen)
System: human THP-1 monocytic leukaemia cells, TNF dual-luciferase reporter clone, PMA-differentiated to macrophage-like cells
Reagents: siRNA pool against human genes, 50 nM
Duration: LPS for 4 h, given about 3 days after siRNA transfection
Treatment: bacterial LPS (TLR4 ligand), 10 ng/ml
Measurement: 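TNF firefly reporter luminescence divided by renilla, normalised to the plate median, then turned into a robust z-score for each replicate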
Direction: TNF reporter robust z-score: higher = stronger TNF reporter response to LPS
Rule for the call: 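a well is active when its z-score exceeds 2.8 or falls below -1.5; control wells carry no call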

CHAF1A (GeneID 10036) [SID315453765]
- TNF reporter robust z-score: 2.03

CHAF1A (GeneID 10036) [SID315453765]
- TNF reporter robust z-score: 1.21

CHAF1A (GeneID 10036) [SID315453765]
- TNF reporter robust z-score: 0.4

CHAF1A (GeneID 10036) [SID315453765]
- TNF reporter robust z-score: 1.13

PPP3CB (GeneID 5532) [SID315450765]
- TNF reporter robust z-score: 0.69

PPP3CB (GeneID 5532) [SID315450765]
- TNF reporter robust z-score: 1.26

PPP3CB (GeneID 5532) [SID315450765]
- TNF reporter robust z-score: 0.5

PKNOX1 (GeneID 5316) [SID315450610]
- TNF reporter robust z-score: -0.3

PKNOX1 (GeneID 5316) [SID315450610]
- TNF reporter robust z-score: -1.14

PKNOX1 (GeneID 5316) [SID315450610]
- TNF reporter robust z-score: 1.25

PKNOX1 (GeneID 5316) [SID315450610]
- TNF reporter robust z-score: 1.42

The list goes on (2 carried over from the part before).
PKNOX1 (GeneID 5316) [SID315450610]
- TNF reporter robust z-score: 1.25

PKNOX1 (GeneID 5316) [SID315450610]
- TNF reporter robust z-score: 1.42

CREB3L2 (GeneID 64764) [SID315458978]
- TNF reporter robust z-score: 0.69

CREB3L2 (GeneID 64764) [SID315458978]
- TNF reporter robust z-score: 0.62

CREB3L2 (GeneID 64764) [SID315458978]
- TNF reporter robust z-score: 0.07

CREB3L2 (GeneID 64764) [SID315458978]
- TNF reporter robust z-score: 0.25

CAVIN4 (GeneID 347273) [SID315464215]
- TNF reporter robust z-score: -0.8

CAVIN4 (GeneID 347273) [SID315464215]
- TNF reporter robust z-score: 0.24

CAVIN4 (GeneID 347273) [SID315464215]
- TNF reporter robust z-score: 0.1

CAVIN4 (GeneID 347273) [SID315464215]
- TNF reporter robust z-score: -0.92
